Substitutions are numbered along the chain they refer to. No constants are given. Whether binding was seen depends on the method and setting. For part of these data: Binding seen in cells or lysates may run through a third protein. Some results given as binding are weak or reduced against the parent protein; the word gives no strength. Where a sequence is shown, tags or fusion partners need not be part of it.

The chains behind the UniProt entries cited, without tags or fusion partners. Where a name states a change or a piece, a line headed by the entry shows the natural chain unless it says otherwise.
UniProt Q03347, whole entry: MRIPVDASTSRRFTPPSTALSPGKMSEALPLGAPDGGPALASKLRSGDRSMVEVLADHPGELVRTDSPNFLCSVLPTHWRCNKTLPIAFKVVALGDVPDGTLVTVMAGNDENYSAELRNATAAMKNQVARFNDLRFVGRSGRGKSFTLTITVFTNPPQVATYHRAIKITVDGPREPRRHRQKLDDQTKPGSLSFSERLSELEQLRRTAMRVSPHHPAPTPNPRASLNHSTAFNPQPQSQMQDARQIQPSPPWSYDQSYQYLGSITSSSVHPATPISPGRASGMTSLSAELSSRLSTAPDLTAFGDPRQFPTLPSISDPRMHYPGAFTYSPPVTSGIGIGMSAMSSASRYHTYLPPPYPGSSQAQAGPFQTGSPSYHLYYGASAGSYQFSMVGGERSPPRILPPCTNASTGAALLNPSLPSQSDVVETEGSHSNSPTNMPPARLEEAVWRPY

For test [1], the target named is T1, HA-tagged full-length FoxP3 R337Q+A372S (mouse) (UniProt Q99JB6).
T1 sequence: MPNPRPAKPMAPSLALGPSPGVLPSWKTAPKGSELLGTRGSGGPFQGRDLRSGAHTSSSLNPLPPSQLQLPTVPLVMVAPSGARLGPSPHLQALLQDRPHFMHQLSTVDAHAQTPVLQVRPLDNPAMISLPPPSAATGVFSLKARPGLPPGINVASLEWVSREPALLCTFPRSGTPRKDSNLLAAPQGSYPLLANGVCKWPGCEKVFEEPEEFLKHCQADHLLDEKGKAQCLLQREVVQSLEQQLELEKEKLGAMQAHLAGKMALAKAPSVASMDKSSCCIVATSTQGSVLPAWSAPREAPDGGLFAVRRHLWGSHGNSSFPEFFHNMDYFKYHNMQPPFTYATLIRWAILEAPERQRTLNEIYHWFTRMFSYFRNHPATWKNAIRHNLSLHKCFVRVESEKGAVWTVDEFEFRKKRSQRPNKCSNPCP
As to the kind of experiment: co-IP.

In test [2] the target is T2, HA-tagged full-length FoxP3 R337Q (mouse) (UniProt Q99JB6).
T2 sequence: T1 sequence with S372A
As to the kind of experiment: co-IP.

The target in test [3] is T3, HA-tagged full-length FoxP3 (mouse) (UniProt Q99JB6).
T3 sequence: T1 sequence with Q337R, S372A
As to the kind of experiment: co-IP.

Test [4] concerns the target NusA-tagged FoxP2^RBR-forkhead (mouse) (UniProt P58463). As to the kind of experiment: SEC-MALS. (In general: Size exclusion chromatography separates by hydrodynamic size, large species first.)
The target of test [5] is NusA-tagged FoxP4^RBR-forkhead (mouse) (UniProt Q9DBY0). As to the kind of experiment: SEC-MALS.
For test [6], the target named is NusA-tagged FoxP1^RBR-forkhead (mouse) (UniProt P58462). As to the kind of experiment: SEC-MALS.

For the molecule “FLAG-tagged full-length Runx1 (from UniProt Q03347 1-451)”, the binding result in test [1], in test [2] and in test [3] was “binds” in each case.

B1: NusA-tagged FoxP2^RBR-forkhead (domain or fragment, UniProt P58463 447-588)
chain: TTPTAPVTPITQGPSVITPASVPNVGAIRRRHSDKYNIPMSSEIAPNYEFYKNADVRPPFTYATLIRQAIMESSDRQLTLNEIYSWFTRTFAYFRRNAATWKNAVRHNLSLHKCFVRVENVKGAVWTVDEVEYQKRRSQKIT
Take B1: the binding result in test [4] was “no binding”.

B2: NusA-tagged FoxP4^RBR-forkhead (domain or fragment, UniProt Q9DBY0 418-577)
chain: GLGSASLHSGGPARRRSNDKFCSPISSELAQNHEFYKNADVRPPFTYASLIRQAILETPDRQLTLNEIYNWFTRMFAYFRRNTATWKNAVRHNLSLHKCFVRVENVKGAVWTVDEREYQKRRPPKMTGSPTLVKNMISGLSYGALNASYQAALAESSFPL
On to B2, for which the binding entry in test [5] is listed as “no binding”.

B3: NusA-tagged FoxP1^RBR-forkhead (domain or fragment, UniProt P58462 433-579)
chain: HTPTTPTAPLTPVTQGPSVITTTSMHTVGPIRRRYSDKYNVPISSADIAQNQEFYKNAEVRPPFTYASLIRQAILESPEKQLTLNEIYNWFTRMFAYFRRNAATWKNAVRHNLSLHKCFVRVENVKGAVWTVDEVEFQKRRPQKISG
For B3, the binding result in test [6] is given as “no binding”.

The values are drawn from doi:10.1101/2022.02.08.479534.
